Experimental data as given in patent publication US20220119490A1.
Results are given in words; binding and its absence hold for the method and conditions named. Some entries that bind do so weakly or less than the wild type. One block for each binder: values may come before it.

Columns and labels:
[1] = molecular target: T1, IL20-RA full-length on cells (human) (UniProt Q9UHF4); experiment: automated cell surface interaction screen: tetramerized query on the untagged full-length library (FIG. 14G)
T1 sequence (looked up): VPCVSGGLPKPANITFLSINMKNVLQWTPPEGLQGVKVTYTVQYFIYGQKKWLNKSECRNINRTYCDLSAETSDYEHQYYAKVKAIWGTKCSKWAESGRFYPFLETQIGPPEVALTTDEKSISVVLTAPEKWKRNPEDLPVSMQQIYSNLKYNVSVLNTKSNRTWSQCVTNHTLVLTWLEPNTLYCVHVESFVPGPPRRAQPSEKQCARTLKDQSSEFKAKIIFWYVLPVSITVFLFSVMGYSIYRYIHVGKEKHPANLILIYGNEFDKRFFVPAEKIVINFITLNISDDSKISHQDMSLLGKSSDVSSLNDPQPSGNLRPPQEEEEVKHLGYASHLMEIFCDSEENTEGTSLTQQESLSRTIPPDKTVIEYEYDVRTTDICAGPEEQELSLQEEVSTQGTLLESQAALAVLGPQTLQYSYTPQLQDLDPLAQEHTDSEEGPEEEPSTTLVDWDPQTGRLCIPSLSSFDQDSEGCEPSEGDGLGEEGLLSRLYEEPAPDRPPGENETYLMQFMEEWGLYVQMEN

[2] = molecular target: T2, IL20-RA ectodomain-gD-GPI on cells (human) (UniProt Q9UHF4); experiment: automated cell surface interaction screen, tetramerised query on the ectodomain-gD-GPI STM library, S/N in two replicates
T2 sequence (looked up): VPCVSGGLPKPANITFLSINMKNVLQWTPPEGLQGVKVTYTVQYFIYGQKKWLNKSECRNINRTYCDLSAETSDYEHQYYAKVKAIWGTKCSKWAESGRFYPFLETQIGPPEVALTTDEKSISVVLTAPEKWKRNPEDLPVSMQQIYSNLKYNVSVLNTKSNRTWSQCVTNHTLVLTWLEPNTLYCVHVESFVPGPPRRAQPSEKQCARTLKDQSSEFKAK

[3] = molecular target: T1, IL20-RA full-length on cells (human); experiment: automated cell surface interaction screen, tetramerised query on the full-length untagged STM library, S/N in two replicates
[4] = molecular target: T2, IL20-RA ectodomain-gD-GPI on cells (human); experiment: automated cell surface interaction screen: tetramerized query on the ectodomain-gD-GPI library (FIG. 14F)
[5] = molecular target: T1, IL20-RA full-length on cells (human); experiment: automated cell surface interaction screen on the untagged full-length library
[6] = molecular target: T2, IL20-RA ectodomain-gD-GPI on cells (human); experiment: automated cell surface interaction screen on the ectodomain-gD-GPI library
mouse PDPN (mouse) = molecular target: T3, mouse PDPN (mouse) (UniProt Q62011); experiment: SPR (data not shown)
T3 sequence (looked up): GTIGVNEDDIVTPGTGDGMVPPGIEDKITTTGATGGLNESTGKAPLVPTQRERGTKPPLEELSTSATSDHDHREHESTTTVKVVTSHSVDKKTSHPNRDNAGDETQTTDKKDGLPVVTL

- binding [1]: binds
- binding [2]: binds
- binding [3]: binds
- binding [4]: binds
- binding [5]: binds
- binding [6]: binds
B1: B7-H3 extracellular domain (receptor, human, UniProt Q5ZPR3 29-466, looked up)
chain: LEVQVPEDPVVALVGTDATLCCSFSPEPGFSLAQLNLIWQLTDTKQLVHSFAEGQDQGSAYANRTALFPDLLAQGNASLRLQRVRVADEGSFTCFVSIRDFGSAAVSLQVAAPYSKPSMTLEPNKDLRPGDTVTITCSSYQGYPEAEVFWQDGQGVPLTGNVTTSQMANEQGLFDVHSILRVVLGANGTYSCLVRNPVLQQDAHSSVTITPQRSPTGAVEVQVPEDPVVALVGTDATLRCSFSPEPGFSLAQLNLIWQLTDTKQLVHSFTEGRDQGSAYANRTALFPDLLAQGNASLRLQRVRVADEGSFTCFVSIRDFGSAAVSLQVAAPYSKPSMTLEPNKDLRPGDTVTITCSSYRGYPEAEVFWQDGQGVPLTGNVTTSQMANEQGLFDVHSVLRVVLGANGTYSCLVRNPVLQQDAHGSVTITGQPMTFPPEA

- binding (mouse PDPN (mouse)): binds
B2: mouse CLEC-2 (receptor)
chain: MSVTQQKYLLAEKENLSATLQQLAKKFCQELIRQSEIKTKSTFEHKCSPCATKWRYHGDSCYGFFRRNLTWEESKQYCTEQNATLVKTASQSTLDYIAERITSVRWIGLSRQNSKKDWMWEDSSVLRKNGINLSGNTEENMNCAYLHNGKIHPASCKERHYLICERNAGMTRVDQLL
